{"source": "patent US20110306105A1", "about": "(University of California, published 2011)", "binders": {"B1": {"name": "exoglucanase CelE from C. cellulolyticum fused to a dockerin domain from the same species (Ec), His6-tagged (enzyme)", "chain": "MLVGAGDLIRNHTFDNRVGLPWHVVESYPAKASFEITSDGKYKITAQKIGEAGKGERWDIQFRHRGLALQQGHTYTVKFTVTASRACKIYPKIGDQGDPYDEYWNMNQQWNFLELQANTPKTVTQTFTQTKGDKKNVEFAFHLAPDKTTSEAQNPASFQPITYTFDEIYIQDPQFAGYTEDPPEPTNVVRLNQVGFYPNADKIATVATSSTTPINWQLVNSTGAAVLTGKSTVKGADRASGDNVHIIDFSSYTTPGTDYKIVTDVSVTKAGDNESMKFNIGDDLFTQMKYDSMKYFYHNRSAIPIQMPYCDQSQWARPAGHTTDILAPDPTKDYKANYTLDVTGGWYDAGDHGKYVVNGGIATWTVMNAYERALHMGGDTSVAPFKDGSLAIPEAEVYPDILDEARYQLINMKTLLNSQVPAGKYAGMAHHKAHDERWTALAVRPDQDTMKRWLQPPSTAATLNLAAIAAQSSRLWKQFDSAFATKCLTAAETARDAAVAHPEIYATMEQGAGGGAYGDNYVLDDFYWAACELYATTGSDKYLNYIKSSKHYLEMPTELTGGENTGITGAFDWGCTAGMGTITLALVPTKLPAADVATAKANIQAAADKFISISKAQGYGVPLEEKVISSPFDASVVKGFQWGSNSFVINEAIVMSYAYEFSDVNGTKNNKYINGALTAMDYLLGRNPNIQSYITGYGDNPLENPHHRFWAYQADNTFPKPPPGCLSGGPNSGLQDPWVKGSGWQPGERPAEKCFMDNIESWSTNEITINWNAPLVWISAYLDEKGPEIGGSVTPPTNLGDVNGDGNKDALDFAALKKALLSQDTSTINVANADINKDGSIDAVDFALLKSFLLGKITQHHHHHH", "notes": "Expressed in E. coli and used as cell lysate or purified; also called CelE-Dc"}}, "key": {"[1]": {"molecular_target": "scaffoldin Scaf-c displayed on the yeast cell surface (chimeric: C. cellulolyticum cohesin with a CBD)", "assay": "immunofluorescence microscopy with anti-His6, yeast displaying Scaf-c"}, "[2]": {"molecular_target": "scaffoldin Scaf-ct displayed on the yeast cell surface (chimeric: C. cellulolyticum, C. thermocellum)", "assay": "immunofluorescence microscopy with anti-His6, yeast displaying Scaf-ct"}}, "note": "Results are given in words; binding and its absence hold for the method and conditions named. Some binding calls cover weakened binding; strength is not graded here. Tags and fused reporters may be left off the sequences shown.", "data": [{"binder": "B1", "values": [{"measurement": "binding", "setting": "[1]", "result": "binds"}, {"measurement": "binding", "setting": "[2]", "result": "binds"}]}]}
